Microarray screen: hit calls

Oligonucleotides screened, 5′ to 3′:
PreQ1: PreQ1 riboswitch RNA pseudoknot, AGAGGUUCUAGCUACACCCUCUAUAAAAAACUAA. From B. subtilis. About 24,000 compounds screened, about 170 hits.
TPP: TPP riboswitch RNA three-way junction, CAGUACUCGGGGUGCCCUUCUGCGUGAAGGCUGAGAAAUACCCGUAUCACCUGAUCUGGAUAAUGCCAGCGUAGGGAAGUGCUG. About 24,000 compounds screened, about 160 hits.
SAM-II: SAM-II riboswitch RNA pseudoknot, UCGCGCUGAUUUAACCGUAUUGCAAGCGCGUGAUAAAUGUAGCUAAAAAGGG. About 21,000 compounds screened, about 200 hits.

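Compounds were printed on reactive glass slides in duplicate spots, a dye-labelled oligonucleotide was laid over them, and the fluorescence left after washing was read. The data file lists only calls. An earlier report of the laboratory on the PreQ1, TPP and SAM-II riboswitches (doi:10.1038/s41467-019-09493-3) used 1 µM RNA for 2 h and required a mean Z-score above 3 (spot signal-to-noise against the whole library), a score well above that on a control array, and duplicate spots agreeing (coefficient of variation under 100); it then also set aside compounds that hit other targets, which this list keeps. The cut-offs behind this list may differ. The calls come from the array alone, and fixing a compound to the slide can hide its binding.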 Key: hit = hit, none = tested without a hit. This is an unselected part of the compounds tested. A dash means that no call is listed here.

| compound | PreQ1 | TPP | SAM-II |
|---|---|---|---|
| `COc1ccc(C(=O)c2sc3nc(C)cc(C(F)(F)F)c3c2N)cc1OC` | none | none | none |
| `CCCCNc1ncccc1-c1nc(-c2ccc(Cl)cc2)no1` | none | none | - |
| `CS(=O)(=O)O.OC(c1cc(C(F)(F)F)nc2c(Cl)cc(Cl)cc12)C1CCCCN1` (stereo not given) | none | none | none |
| `COc1ccccc1Nc1nc(-c2cc(C)ccc2C)cs1` | none | none | none |
| `O=C(CCc1nc(Cl)n[nH]1)N1CCC2(CC1)[C@H](O)C[C@@H]2O` | none | none | none |
| `CCCCNc1ncnc2sc3c(c12)CCCC3` | none | none | none |
| `OC(CN1CCCc2ccccc21)Cn1c2ccccc2c2ccccc21` (stereo not given) | none | none | none |
| `Cc1nc(Nc2ncc3c(n2)CCCC3=O)nc2ccccc12` | none | none | none |
| `Cc1ccc(-c2cc(C(=O)N3CCOCC(CO)C3)[nH]n2)o1` (stereo not given) | none | none | none |
| `c1ccc(CN2CCC(Nc3nc(-c4cccnc4)nc4c3CNC4)CC2)cc1` | none | none | hit |
| `CCC(=O)c1ccc(OCC(O)CN2CCN(c3cccc(Cl)c3C)CC2)cc1` (stereo not given) | none | none | none |
| `Oc1ccc(C2CNCCc3c2cc(O)c(O)c3Cl)cc1` (stereo not given) | none | none | none |
| `Nc1ncccc1CN1C[C@H]2CN(C(=O)C3CCCC3)C[C@@]2(C(=O)O)C1` | none | none | none |
| `CC(=O)NC(CS)C(=O)O` (stereo not given) | none | none | none |
| `CCOC(=O)c1ccccc1NC(=O)N1CCCC2(CCNC2)C1` (stereo not given) | none | none | none |
| `N#CC1=C(N)Oc2c(c(=O)oc3ccccc23)C1c1ccsc1` (stereo not given) | none | none | none |
| `O=C(O)c1ccc(NCc2nc3ccccc3n2Cc2ccc(Cl)cc2)cc1` | none | none | none |
| `CCCCNc1cc(-n2nc(C)cc2-c2ccccc2)ncn1` | none | none | none |
| `O=C(NCCN1CCCCC1CO)c1cccc(Cn2cccn2)c1` (stereo not given) | none | none | none |
| `CCc1ccc(-n2nc(CO)c(C(=O)NCc3cccs3)n2)cc1` | none | none | - |
| `Cc1ccc(S(=O)(=O)N2CCC(N3CCN(CCO)CC3)CC2)cc1.O=C(O)C(=O)O` | none | none | none |
| `O=C1C[C@H]2CC[C@@H](CN1CC(=O)N(Cc1c(F)cccc1Cl)C1CC1)N2` | none | none | none |
| `C[C@]1(O)CCN(C(=O)CNC(=O)c2cc(Cl)ccc2Cl)C[C@@H]1O` | none | none | none |
| `COc1ccc(Cl)cc1-c1nc(-c2nonc2N)no1` | none | none | none |
| `CCCC(=O)C1=C(NC(CC)CO)CC(C)(C)CC1=O` (stereo not given) | none | none | none |
| `O=C(NC1CCCCC1)c1cccc(S(=O)(=O)N2CCOCC(O)C2)c1` (stereo not given) | none | none | none |
| `CSc1nc(-c2ccc(C)cc2)nc2c1Cc1c(CO)cnc(C)c1O2` | none | none | - |
| `Cc1cc(Nc2ncnc3ccc(-c4ccc(CNCCS(C)(=O)=O)o4)cc23)ccc1Oc1ccn2ncnc2c1` | none | none | none |
| `CCCCNS(=O)(=O)c1ccc(NCc2ccccc2)c([N+](=O)[O-])c1` | none | none | none |
| `Cc1[nH]c2ccccc2c1CCCNC1CCCCC1` | none | none | none |
| `Nc1nonc1C(=O)NCCNCc1cc(Br)ccc1OCc1ccc(F)cc1` | none | none | - |
| `CC(C)C[C@H](NC(=O)[C@H](Cc1ccccc1)NC(=O)OCc1ccccc1)C(=O)C=O` | none | none | none |
| `Nc1nonc1-c1nc2ccccc2n1CC(=O)Nc1ccccc1F` | none | none | none |
| `C=CCNc1ccccc1C(=O)N1CCCC1c1nc(C(C)C)no1` (stereo not given) | none | none | none |
| `CC(C)CNc1nc(-c2ccccc2)nc2ccccc12` | none | none | none |
| `COC(=O)c1ccc(OCC(O)Cn2c(Cc3ccccc3)nc3ccccc32)cc1` (stereo not given) | none | none | none |
| `NC(=S)N/N=C/c1cc(-c2cccc(N)c2)ccn1` | none | none | none |
| `CCCCCc1cc(=O)[nH]c(=S)[nH]1` | none | none | none |
| `CCCCNC1=C(C(=O)Nc2ccccc2)S(=O)(=O)c2ccccc21` | none | none | none |
| `CCC(CC)C1C(C#N)=C(N)Oc2c1c(=O)oc1ccccc21` (stereo not given) | none | none | none |
| `COc1ccc(CNCCC(c2ccco2)c2ccccc2OC)cc1OC` (stereo not given) | none | none | none |
| `CCCn1cc(C(=O)NCc2nc(N)nc(N(C)C)n2)c(C)n1` | none | none | none |
| `Cc1cc(NCc2ccccc2)n2nc(-c3ccc(Cl)cc3)nc2n1` | none | none | - |
| `Cc1cc(Nc2ccc(C(N)=O)cc2)n2nc(-c3cccc(Cl)c3)c(C)c2n1` | none | none | - |
| `CN(C)c1ccc(NC2=CC(=O)c3ccccc3C2=O)cc1` | none | none | none |
| `C[C@@H](CO)NC(=O)c1cc(CN(C)CCc2ccccc2)on1` | none | none | none |
| `COc1ccc(-c2c3c(=O)n(C)c(=O)n(C)c3cn2CCO)cc1` | none | none | none |
| `COc1cccc(-c2nc3cc(OC)c(OC)cc3cc2CN2CCC(O)CC2)c1` | none | none | none |
| `Cn1cncc1[C@@](N)(c1ccc(Cl)cc1)c1ccc2c(c1)c(-c1cccc(Cl)c1)cc(=O)n2C` | none | none | none |
| `Cc1cc(Nc2ccc(Br)cc2)nc(C)n1` | none | none | - |
| `Oc1cccc(-c2nc3ncccn3c2Nc2cccc(C(F)(F)F)c2)c1` | none | none | none |
| `Cc1ccc(NC2OC(=O)c3ccccc32)c(C)c1` (stereo not given) | none | none | none |
| `Cn1c(=O)[nH]c(=O)c2c1nc(Br)n2CC(O)COc1ccccc1` (stereo not given) | none | none | none |

The first 3 entries again:

| compound | PreQ1 | TPP | SAM-II |
|---|---|---|---|
| `COc1ccc(C(=O)c2sc3nc(C)cc(C(F)(F)F)c3c2N)cc1OC` | none | none | none |
| `CCCCNc1ncccc1-c1nc(-c2ccc(Cl)cc2)no1` | none | none | - |
| `CS(=O)(=O)O.OC(c1cc(C(F)(F)F)nc2c(Cl)cc(Cl)cc12)C1CCCCN1` (stereo not given) | none | none | none |

Calls as published in the ROBIN set (doi:10.1002/anie.202211358).